{
  "source": "the supplement of paper PMC8728848",
  "binders": {"B1": {"name": "PX14343C-bfa-541-26-541 (Bacteroides fragilis) (protein)", "chain": "KAPLDEIADDSFWSDETLVKYYVNDLYSEISVDGLQLQENRSDNSVSAQRDKYRASWFKFNYDMVSASDPQDDDVWEDYYVKVRKCNRFFERIGTSTIEESEKSRLTGEVHFLRAMFYFEMVKRYGGVILLDKVLTMEDNWEIPRSSEKECYDFILEDLKKATEMLPASYGSREKGRATKGAAYALKSRVELYDKRYEDVIKSCAEVYKLGYELVDGTTPEKYRSIWWTTNKDNKEIIFDVQYKSPDVYNNMMVCNMVTYINDKYGDRGWGGLGPTQELIDAFEMADGTPATQYSQAPADQVFDINTCGIYEGREPRFYANIVFHGSQIFFNADKGAVTVDRYLMDTPDKGDGSLTGYNVWKWIDYDNYNYPYAGAGSPDFSTNWIILRYAEIYLNDAEARLETGDVEGARKAVNMIRQRVGLPDLTESDPEKLRELIRKERRIEFAFEEQRFYDVRRWKIGPETQTTLHGVRFVSPTEFKVTKTDIRTWNDRLYLTPVPHDEIVRSSVLKQNLGY"}},
  "assay_in_all_cases": "glycan array binding signal (z-score within array); higher = stronger binding",
  "conditions_in_all_cases": "glycan notation: IUPAC condensed, linker removed",
  "key": {"[1]": {"target": "Neu5Ac(a2-3)Gal(b1-3)[Fuc(a1-4)]GlcNAc", "outline": "(§1)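 The binding signal is a Z-score computed within each array and averaged over linkers. Arrays of the same protein sequence at different concentrations or buffers were also averaged together. Data originate from 3228 arrays in the Consortium for Functional Glycomics database, kept only where the protein sequence was available.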"}, "[2]": {"target": "Neu5Ac(a2-3)Gal(b1-3)[Fuc(a1-4)]GlcNAc(b1-3)Gal(b1-3)[Fuc(a1-4)]GlcNAc", "outline": "as §1"}, "[3]": {"target": "Neu5Ac(a2-3)Gal(b1-3)[Fuc(a1-4)]GlcNAc(b1-3)Gal(b1-4)[Fuc(a1-3)]GlcNAc", "outline": "as §1"}, "[4]": {"target": "Neu5Ac(a2-3)Gal(b1-3)[GlcNAc(b1-6)]GalNAc", "outline": "as §1"}, "[5]": {"target": "Neu5Ac(a2-3)Gal(b1-3)[Neu5Ac(a2-6)]GalNAc", "outline": "as §1"}, "[6]": {"target": "Neu5Ac(a2-3)Gal(b1-3)[Neu5Ac(a2-6)]GlcNAc(b1-3)[Fuc(a1-3)[Gal(b1-4)]GlcNAc(b1-6)]Gal(b1-4)Glc", "outline": "as §1"}, "[7]": {"target": "Neu5Ac(a2-3)Gal(b1-3)]Neu5Ac(a2-3)Gal(b1-4)]GlcNAc", "outline": "as §1"}, "Neu5Ac(a2-3)Gal(b1-4)Glc": {"target": "Neu5Ac(a2-3)Gal(b1-4)Glc", "outline": "as §1"}, "[8]": {"target": "Neu5Ac(a2-3)Gal(b1-4)GlcNAc", "outline": "as §1"}, "[9]": {"target": "Neu5Ac(a2-3)Gal(b1-4)GlcNAc(b1-2)Man", "outline": "as §1"}, "[10]": {"target": "Neu5Ac(a2-3)Gal(b1-4)GlcNAc(b1-2)Man(a1-3)[GlcNAc(b1-4)][Neu5Ac(a2-3)Gal(b1-4)GlcNAc(b1-2)Man(a1-6)]Man(b1-4)GlcNAc(b1-4)GlcNAc", "outline": "as §1"}, "[11]": {"target": "Neu5Ac(a2-3)Gal(b1-4)GlcNAc(b1-2)Man(a1-3)[Neu5Ac(a2-3)Gal(b1-4)GlcNAc(b1-2)Man(a1-6)]Man(b1-4)GlcNAc(b1-4)GlcNAc", "outline": "as §1"}, "[12]": {"target": "Neu5Ac(a2-3)Gal(b1-4)GlcNAc(b1-2)Man(a1-3)[Neu5Ac(a2-3)Gal(b1-4)GlcNAc(b1-2)Man(a1-6)]Man(b1-4)GlcNAc(b1-4)[Fuc(a1-6)]GlcNAc", "outline": "as §1"}, "[13]": {"target": "Neu5Ac(a2-3)Gal(b1-4)GlcNAc(b1-2)Man(a1-3)[Neu5Ac(a2-6)Gal(b1-4)GlcNAc(b1-2)Man(a1-6)]Man(b1-4)GlcNAc(b1-4)GlcNAc", "outline": "as §1"}, "[14]": {"target": "Neu5Ac(a2-3)Gal(b1-4)GlcNAc(b1-2)[Neu5Ac(a2-3)Gal(b1-4)GlcNAc(b1-4)]Man(a1-3)[GlcNAc(b1-4)][Neu5Ac(a2-3)Gal(b1-4)GlcNAc(b1-2)[Neu5Ac(a2-3)Gal(b1-4)GlcNAc(b1-6)]Man(a1-6)]Man(b1-4)GlcNAc(b1-4)GlcNAc", "outline": "as §1"}, "[15]": {"target": "Neu5Ac(a2-3)Gal(b1-4)GlcNAc(b1-2)[Neu5Ac(a2-3)Gal(b1-4)GlcNAc(b1-4)]Man(a1-3)[GlcNAc(b1-4)][Neu5Ac(a2-3)Gal(b1-4)GlcNAc(b1-4)Man(a1-6)]Man(b1-4)GlcNAc(b1-4)GlcNAc", "outline": "as §1"}, "[16]": {"target": "Neu5Ac(a2-3)Gal(b1-4)GlcNAc(b1-2)[Neu5Ac(a2-3)Gal(b1-4)GlcNAc(b1-6)]Man(a1-6)[Neu5Ac(a2-3)Gal(b1-4)GlcNAc(b1-2)Man(a1-3)]Man(b1-4)GlcNAc(b1-4)GlcNAc", "outline": "as §1"}, "[17]": {"target": "Neu5Ac(a2-3)Gal(b1-4)GlcNAc(b1-2)[Neu5Ac(a2-3)Gal(b1-4)GlcNAc(b1-6)]Man(a1-6)[Neu5Ac(a2-3)Gal(b1-4)GlcNAc(b1-2)Man(a1-3)][GlcNAc(b1-4)]Man(b1-4)GlcNAc(b1-4)GlcNAc", "outline": "as §1"}, "[18]": {"target": "Neu5Ac(a2-3)Gal(b1-4)GlcNAc(b1-3)Gal", "outline": "as §1"}, "[19]": {"target": "Neu5Ac(a2-3)Gal(b1-4)GlcNAc(b1-3)Gal(b1-3)GlcNAc", "outline": "as §1"}, "[20]": {"target": "Neu5Ac(a2-3)Gal(b1-4)GlcNAc(b1-3)Gal(b1-4)GlcNAc", "outline": "as §1"}, "[21]": {"target": "Neu5Ac(a2-3)Gal(b1-4)GlcNAc(b1-3)Gal(b1-4)GlcNAc(b1-2)Man(a1-3)[Neu5Ac(a2-3)Gal(b1-4)GlcNAc(b1-3)Gal(b1-4)GlcNAc(b1-2)Man(a1-6)]Man(b1-4)GlcNAc(b1-4)GlcNAc", "outline": "as §1"}, "[22]": {"target": "Neu5Ac(a2-3)Gal(b1-4)GlcNAc(b1-3)Gal(b1-4)GlcNAc(b1-3)Gal(b1-4)GlcNAc", "outline": "as §1"}, "[23]": {"target": "Neu5Ac(a2-3)Gal(b1-4)GlcNAc(b1-3)Gal(b1-4)GlcNAc(b1-3)Gal(b1-4)GlcNAc(b1-2)Man(a1-3)[Neu5Ac(a2-3)Gal(b1-4)GlcNAc(b1-3)Gal(b1-4)GlcNAc(b1-3)Gal(b1-4)GlcNAc(b1-2)Man(a1-6)]GalNAc", "outline": "as §1"}, "[24]": {"target": "Neu5Ac(a2-3)Gal(b1-4)GlcNAc(b1-3)Gal(b1-4)GlcNAc(b1-3)GalNAc", "outline": "as §1"}, "[25]": {"target": "Neu5Ac(a2-3)Gal(b1-4)GlcNAc(b1-3)Gal(b1-4)GlcNAc(b1-3)[Neu5Ac(a2-3)Gal(b1-4)GlcNAc(b1-3)Gal(b1-4)GlcNAc(b1-6)]GalNAc", "outline": "as §1"}, "[26]": {"target": "Neu5Ac(a2-3)Gal(b1-4)GlcNAc(b1-3)Gal(b1-4)GlcNAc(b1-6)[Gal(b1-3)]GalNAc", "outline": "as §1"}, "[27]": {"target": "Neu5Ac(a2-3)Gal(b1-4)GlcNAc(b1-3)Gal(b1-4)[Fuc(a1-3)]GlcNAc", "outline": "as §1"}, "[28]": {"target": "Neu5Ac(a2-3)Gal(b1-4)GlcNAc(b1-3)GalNAc", "outline": "as §1"}, "[29]": {"target": "Neu5Ac(a2-3)Gal(b1-4)GlcNAc(b1-3)[Neu5Ac(a2-3)Gal(b1-4)GlcNAc(b1-6)]GalNAc", "outline": "as §1"}},
  "note": "The list shows a part of the results.",
  "data": [
    {"binder": "B1", "values": [
      {"measurement": "glycan array binding signal (z-score)", "setting": "[1]", "value": -0.591},
      {"measurement": "glycan array binding signal (z-score)", "setting": "[2]", "value": 0.555},
      {"measurement": "glycan array binding signal (z-score)", "setting": "[3]", "value": -0.671},
      {"measurement": "glycan array binding signal (z-score)", "setting": "[4]", "value": -0.831},
      {"measurement": "glycan array binding signal (z-score)", "setting": "[5]", "value": 0.409},
      {"measurement": "glycan array binding signal (z-score)", "setting": "[6]", "value": -0.747},
      {"measurement": "glycan array binding signal (z-score)", "setting": "[7]", "value": -0.364},
      {"measurement": "glycan array binding signal (z-score)", "setting": "Neu5Ac(a2-3)Gal(b1-4)Glc", "value": -0.175},
      {"measurement": "glycan array binding signal (z-score)", "setting": "[8]", "value": -0.554},
      {"measurement": "glycan array binding signal (z-score)", "setting": "[9]", "value": 0.589},
      {"measurement": "glycan array binding signal (z-score)", "setting": "[10]", "value": 0.104},
      {"measurement": "glycan array binding signal (z-score)", "setting": "[11]", "value": -0.388},
      {"measurement": "glycan array binding signal (z-score)", "setting": "[12]", "value": -0.956},
      {"measurement": "glycan array binding signal (z-score)", "setting": "[13]", "value": -0.28},
      {"measurement": "glycan array binding signal (z-score)", "setting": "[14]", "value": 0.102},
      {"measurement": "glycan array binding signal (z-score)", "setting": "[15]", "value": -0.071},
      {"measurement": "glycan array binding signal (z-score)", "setting": "[16]", "value": 0.43},
      {"measurement": "glycan array binding signal (z-score)", "setting": "[17]", "value": -0.471},
      {"measurement": "glycan array binding signal (z-score)", "setting": "[18]", "value": -1.26},
      {"measurement": "glycan array binding signal (z-score)", "setting": "[19]", "value": -0.417},
      {"measurement": "glycan array binding signal (z-score)", "setting": "[20]", "value": -1.06},
      {"measurement": "glycan array binding signal (z-score)", "setting": "[21]", "value": 0.39},
      {"measurement": "glycan array binding signal (z-score)", "setting": "[22]", "value": -0.847},
      {"measurement": "glycan array binding signal (z-score)", "setting": "[23]", "value": 5.05},
      {"measurement": "glycan array binding signal (z-score)", "setting": "[24]", "value": -0.539},
      {"measurement": "glycan array binding signal (z-score)", "setting": "[25]", "value": -1.06},
      {"measurement": "glycan array binding signal (z-score)", "setting": "[26]", "value": -0.717},
      {"measurement": "glycan array binding signal (z-score)", "setting": "[27]", "value": -0.402},
      {"measurement": "glycan array binding signal (z-score)", "setting": "[28]", "value": 0.316},
      {"measurement": "glycan array binding signal (z-score)", "setting": "[29]", "value": -0.461}
    ]}
  ]
}
